This is one part of the list. Single values are uncertain here, since repeats match poorly.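 Fusion between ACE2-bearing and full-length-spike-bearing U2OS cells was measured by imaging as the percentage of nuclei with both cell types' fluorescent markers. An inhibitory hit is a non-toxic compound whose fusion z-score is below -3, more than three standard deviations beneath the plate's DMSO wells.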
system: U2OS ACE2 x SARS-CoV-2 spike co-culture; assay: cell-cell fusion (fraction fused) z-score vs plate DMSO control; higher = more fusion; details: 30 µM; 5 h; toxicity class: non-toxic, passed QC

Row | SMILES | cell-cell fusion (z-score)
1 | CN(C)[C@@H]1C(O)=C(C(N)=O)C(=O)[C@@]2(O)C(O)=C3C(=O)c4c(O)cccc4[C@@](C)(O)[C@H]3C[C@@H]12.Cl [Tetracycline hydrochloride] | inactive: 2.92
2 | NC[C@@H]1O[C@H](O[C@@H]2[C@@H](CO)OC(O[C@@H]3[C@@H](O)[C@H](N)C[C@H](N)[C@H]3OC3O[C@H](CN)[C@@H](O)[C@H](O)[C@H]3N)[C@@H]2O)[C@H](N)[C@@H](O)[C@@H]1O.O=S(=O)(O)O (stereo partly drawn) | inactive: 0.593
3 | CN(Cc1cnc2nc(N)nc(N)c2n1)c1ccc(C(=O)N[C@@H](CCC(=O)O)C(=O)O)cc1 [Abitrexate (Methotrexate)] | inactive: 0.877
4 | C=CC(C1=CC(=O)C(OC)=CC1=O)c1ccccc1 (stereo not drawn) | inactive: 2.15
5 | C[C@@H](c1ncncc1F)[C@](O)(Cn1cncn1)c1ccc(F)cc1F [Voriconazole] | inactive: 2.08
6 | C[C@@H](c1ncncc1F)[C@](O)(Cn1cncn1)c1ccc(F)cc1F | inactive: 2.52
7 | CC(=O)[C@H]1CC[C@H]2[C@@H]3C[C@H](C)C4=CC(=O)CC[C@]4(C)[C@H]3[C@@H](O)C[C@]12C [Medrysone] | inactive: -1.02
8 | C[C@H]1CC2C3CCC4=CC(=O)C=C[C@]4(C)[C@@]3(F)[C@@H](O)C[C@]2(C)[C@@]1(O)C(=O)CO (stereo partly drawn) [Betamethasone] | inactive: 1.67
9 | C[C@H]1CC2C3CCC4=CC(=O)C=C[C@]4(C)[C@@]3(F)[C@@H](O)C[C@]2(C)[C@@]1(O)C(=O)CO (stereo partly drawn) | inactive: 1.15
10 | CCCc1nc(C)c2c(=O)[nH]c(-c3cc(S(=O)(=O)N4CCN(CC)CC4)ccc3OCC)nn12.Cl | inactive: 0.279
11 | O=C([O-])[C@H](O)[C@@H](O)[C@H](O)[C@H](O)CO.O=C([O-])[C@H](O)[C@@H](O)[C@H](O)[C@H](O)CO.[Ca+2] [Calcium gluconate] | inactive: 3.02
12 | C/C=C\C1=C(C(=O)O)N2C(=O)C(NC(=O)C(N)c3ccc(O)cc3)C2SC1 (stereo not drawn) | inactive: 3.62
13 | COc1cc2nc(N3CCN(C(=O)C4COc5ccccc5O4)CC3)nc(N)c2cc1OC.CS(=O)(=O)O (stereo not drawn) [Doxazosin mesylate] | inactive: 0.171
14 | CCCCCCCCCCCCCCCCCCc1ccc(C(=O)/C=C/C(=O)O)cc1 | inactive: 3.19
15 | COc1cc2c(cc1OC)-c1cc3ccc(OC)c(OC)c3c[n+]1CC2.[Cl-] | inactive: 2.75
16 | COc1cc2c3cc1Oc1cc(ccc1O)C[C@@H]1c4c(cc(OC)c(O)c4Oc4ccc(cc4)C[C@@H]3N(C)CC2)CC[N+]1(C)C.Cl.[Cl-] | inactive: 1.39
17 | C=C1C[C@@]23CC[C@H]4[C@@](C)(CCC[C@@]4(C)C(=O)OC4OC(CO)C(O)C(O)C4O)[C@@H]2CC[C@]1(OC1OC(CO)C(O)C(O)C1OC1OC(CO)C(O)C(O)C1O)C3 (stereo partly drawn) [Stevioside] | inactive: 2.4
18 | COc1ccc(OC)c(C(O)CNC(=O)CN)c1.Cl (stereo not drawn) [Midodrine hydrochloride] | inactive: 3.32
19 | COc1c2ccoc2c(OC)c2oc(=O)ccc12 | inactive: 2.58
20 | COC(=O)[C@H](c1ccccc1Cl)N1CCc2sccc2C1.O=S(=O)(O)O | inactive: 1.22
21 | Cl.NCCCC(N)C(=O)O (stereo not drawn) | inactive: -0.141

Row | SMILES | cell-cell fusion (z-score)
22 | CC1(C)C=Cc2cc3ccc(=O)oc3cc2O1 | inactive: 1.25
23 | CCN1CCC(CNC(=O)c2cc(S(N)(=O)=O)ccc2OC)C1 (stereo not drawn) | inactive: 2.85
24 | CC(N)C12CC3CC(CC(C3)C1)C2.Cl (stereo not drawn) | inactive: -1.52
25 | [NH3+][Pt]1([NH3+])[O]C(=O)C2(CCC2)C(=O)[O]1 [Carboplatin] | inactive: 1.23
26 | CN(C)CCOC(c1ccccc1)c1ccccc1.Cl [Diphenhydramine hydrochloride] | inactive: 2.99
27 | CN(C)CCOC(c1ccccc1)c1ccccc1.Cl | inactive: 2.17
28 | O=C(O)[C@H](O)[C@@H](O)C(=O)O.c1cnc2cc3c(cc2n1)C1CNCC3C1 [Varenicline Tartrate] | inactive: 3.77
29 | Br.CN1C2CCC1CC(OC(=O)C(O)c1ccccc1)C2 (racemic) [DL-Homatropine hydrobromide] | inactive: 3.57
30 | FC(F)(F)c1ccc(CNc2ccc(Cc3c[nH]c4ncc(Cl)cc34)cn2)cn1 [Pexidartinib] | inactive: 3.35
31 | CCC(=O)O[C@]1(C(=O)SCF)[C@H](C)CC2C3CC(F)C4=CC(=O)C=C[C@]4(C)C3(F)[C@@H](O)C[C@@]21C (stereo partly drawn) | inactive: 2.78
32 | CC[C@H](C(=O)[C@H](C)[C@@H](O)[C@@H](C)[C@@H]1O[C@@H]([C@@H](CC)C(=O)O)CC[C@H]1C)[C@H]1O[C@]2(C=C[C@@H](O)[C@]3(CC[C@@](C)([C@H]4CC[C@](O)(CC)[C@H](C)O4)O3)O2)[C@H](C)C[C@H]1C [Salinomycin (Procoxacin)] | inactive: 1.62
33 | C/C(=C\C(=O)OCCCCCCCCC(=O)O)C[C@@H]1OC[C@H](C[C@@H]2O[C@H]2[C@@H](C)[C@H](C)O)[C@@H](O)[C@H]1O [Mupirocin] | inactive: 2.77
34 | Clc1ccccc1C(c1ccccc1)(c1ccccc1)n1ccnc1 | inactive: 1.63
35 | Clc1ccccc1C(c1ccccc1)(c1ccccc1)n1ccnc1 [Clotrimazole] | inactive: 1.15
36 | Cl.N=C(N)NC(=O)c1nc(Cl)c(N)nc1N | inactive: 1.25
37 | O=C(O)[C@@H](S)[C@@H](S)C(=O)O | inactive: 3.49
38 | O=C(O)c1ccc[n+]([O-])c1 | inactive: 3.88
39 | CC(C)c1cc2c(c(O)c1O)[C@@]1(C(=O)O)CCCC(C)(C)C1CC2 (stereo partly drawn) | inactive: 2.53
40 | COC1(C2=NCCN2)COc2ccccc2O1.Cl (stereo not drawn) | inactive: 1.47
41 | CC(C)(C)NCC(O)c1cc(Cl)c(N)c(Cl)c1.Cl (stereo not drawn) | inactive: 0.951
42 | CC(=O)O[C@H]1C[C@@H](O)C(C)(C)C2C[C@@H](OC(C)=O)[C@]3(C)C(CC[C@@]4(C)[C@H](c5ccoc5)OC(=O)C5OC543)[C@]21C (stereo partly drawn) | inactive: 1.71

Row | SMILES | cell-cell fusion (z-score)
43 | CS(=O)(=O)O.O.O=C(O[C@@H]1C[C@@H]2C[C@H]3C[C@H](C1)N2CC3=O)c1c[nH]c2ccccc12 [Dalasetron Mesylate Hydrate] | inactive: 0.523
44 | CC12CC3CC(C)(C1)CC(N)(C3)C2.Cl | inactive: 0.307
45 | CC12CC3CC(C)(C1)CC(N)(C3)C2.Cl [Memantine hydrochloride] | inactive: 3.25
46 | C[C@H](CCC(=O)O)[C@H]1CC[C@H]2[C@@H]3CC[C@@H]4C[C@H](O)CC[C@]4(C)[C@H]3C[C@H](O)[C@]12C [Deoxycholic acid] | inactive: 2.47
47 | O=C1NC(=O)C(c2ccccc2[N+](=O)[O-])=C1Nc1ccc(O)c(Cl)c1 | inactive: 2.21
48 | CC(O)C(=O)[O-].[NH4+] (stereo not drawn) | inactive: 1.96
49 | CCN(CC)S(=O)(=O)c1ccc(C(=O)O)cc1 | inactive: 1.48
50 | NC[C@H]1O[C@H](O[C@H]2[C@H](O)[C@@H](O[C@H]3O[C@H](CO)[C@@H](O)[C@H](N)[C@H]3O)[C@H](N)C[C@@H]2N)[C@H](N)C[C@@H]1O | inactive: 4.42
51 | NC[C@H]1O[C@H](O[C@H]2[C@H](O)[C@@H](O[C@H]3O[C@H](CO)[C@@H](O)[C@H](N)[C@H]3O)[C@H](N)C[C@@H]2N)[C@H](N)C[C@@H]1O [Tobramycin] | inactive: 2.17
52 | CN(C)CCOc1ccc(/C(=C(/CCCl)c2ccccc2)c2ccccc2)cc1.O=C(O)CC(O)(CC(=O)O)C(=O)O [Toremifene citrate] | inactive: -1.9
53 | COc1ccc(/C=C/C(=O)c2cc(O)ccc2O)cc1 | inactive: 1.21
54 | CC(C)(S)[C@@H](N)C(=O)O [d-penicillamin] | inactive: 0.894
55 | Nc1ncn([C@@H]2O[C@H](CO)[C@@H](O)[C@H]2O)c(=O)n1 [5-Azacytidine] | inactive: 2.19
56 | CO[C@@H]1[C@@H](O[C@@H]2O[C@H](C)[C@@H](O[C@H]3C[C@@](C)(O)[C@H](O)[C@H](C)O3)[C@H](N(C)C)[C@H]2O)[C@@H](CC=O)C[C@@H](C)[C@@H](O[C@H]2CC[C@H](N(C)C)[C@@H](C)O2)/C=C/C=C/C[C@H](C)OC(=O)C[C@H]1O | inactive: 3.62
57 | COc1cc(C(=O)O)cc(OC)c1O | inactive: 2.41
58 | COCCOC(=O)C1=C(C)NC(C)=C(C(=O)OC(C)C)C1c1cccc([N+](=O)[O-])c1 (stereo not drawn) [Nimodipine] | inactive: 0.905
59 | CC(=O)O[C@]1(C(C)=O)CC[C@H]2[C@@H]3C=C(Cl)C4=CC(=O)[C@@H]5C[C@@H]5[C@]4(C)[C@H]3CC[C@@]21C [Cyproterone acetate] | inactive: 2.73
60 | Nc1nc2c(ncn2COC(CO)CO)c(=O)[nH]1 [Ganciclovir] | inactive: 3.84
61 | COc1ccccc1N1CCN(CCN(C(=O)C2CCCCC2)c2ccccn2)CC1.O=C(O)/C=C\C(=O)O | inactive: 1.82
62 | O=C(O)/C=C\C(=O)O.c1ccc2nc(N3CCNCC3)ccc2c1 | inactive: 4.41
63 | C[C@@H]1CC[C@@]2(OC1)O[C@H]1CC3C4CC[C@H]5C[C@@H](O)CC[C@]5(C)C4CC[C@]3(C)[C@H]1[C@@H]2C (stereo partly drawn) | inactive: 2.65

Shown comma-delimited: part of the list above
Row,SMILES,cell-cell fusion (z-score)
53,COc1ccc(/C=C/C(=O)c2cc(O)ccc2O)cc1,inactive: 1.21
54,CC(C)(S)[C@@H](N)C(=O)O [d-penicillamin],inactive: 0.894

From the supplement of paper PMC8104966
